No constants are given. Whether binding was seen depends on the method and setting. Some results given as binding are weak or reduced against the parent protein; the word gives no strength. Where a sequence is shown, tags or fusion partners need not be part of it.

For assay [1], the target named is T1, GFP-LacI-CENP-C_(M1407E/L1357E) (Drosophila melanogaster), Q9VHP9.
T1 chain: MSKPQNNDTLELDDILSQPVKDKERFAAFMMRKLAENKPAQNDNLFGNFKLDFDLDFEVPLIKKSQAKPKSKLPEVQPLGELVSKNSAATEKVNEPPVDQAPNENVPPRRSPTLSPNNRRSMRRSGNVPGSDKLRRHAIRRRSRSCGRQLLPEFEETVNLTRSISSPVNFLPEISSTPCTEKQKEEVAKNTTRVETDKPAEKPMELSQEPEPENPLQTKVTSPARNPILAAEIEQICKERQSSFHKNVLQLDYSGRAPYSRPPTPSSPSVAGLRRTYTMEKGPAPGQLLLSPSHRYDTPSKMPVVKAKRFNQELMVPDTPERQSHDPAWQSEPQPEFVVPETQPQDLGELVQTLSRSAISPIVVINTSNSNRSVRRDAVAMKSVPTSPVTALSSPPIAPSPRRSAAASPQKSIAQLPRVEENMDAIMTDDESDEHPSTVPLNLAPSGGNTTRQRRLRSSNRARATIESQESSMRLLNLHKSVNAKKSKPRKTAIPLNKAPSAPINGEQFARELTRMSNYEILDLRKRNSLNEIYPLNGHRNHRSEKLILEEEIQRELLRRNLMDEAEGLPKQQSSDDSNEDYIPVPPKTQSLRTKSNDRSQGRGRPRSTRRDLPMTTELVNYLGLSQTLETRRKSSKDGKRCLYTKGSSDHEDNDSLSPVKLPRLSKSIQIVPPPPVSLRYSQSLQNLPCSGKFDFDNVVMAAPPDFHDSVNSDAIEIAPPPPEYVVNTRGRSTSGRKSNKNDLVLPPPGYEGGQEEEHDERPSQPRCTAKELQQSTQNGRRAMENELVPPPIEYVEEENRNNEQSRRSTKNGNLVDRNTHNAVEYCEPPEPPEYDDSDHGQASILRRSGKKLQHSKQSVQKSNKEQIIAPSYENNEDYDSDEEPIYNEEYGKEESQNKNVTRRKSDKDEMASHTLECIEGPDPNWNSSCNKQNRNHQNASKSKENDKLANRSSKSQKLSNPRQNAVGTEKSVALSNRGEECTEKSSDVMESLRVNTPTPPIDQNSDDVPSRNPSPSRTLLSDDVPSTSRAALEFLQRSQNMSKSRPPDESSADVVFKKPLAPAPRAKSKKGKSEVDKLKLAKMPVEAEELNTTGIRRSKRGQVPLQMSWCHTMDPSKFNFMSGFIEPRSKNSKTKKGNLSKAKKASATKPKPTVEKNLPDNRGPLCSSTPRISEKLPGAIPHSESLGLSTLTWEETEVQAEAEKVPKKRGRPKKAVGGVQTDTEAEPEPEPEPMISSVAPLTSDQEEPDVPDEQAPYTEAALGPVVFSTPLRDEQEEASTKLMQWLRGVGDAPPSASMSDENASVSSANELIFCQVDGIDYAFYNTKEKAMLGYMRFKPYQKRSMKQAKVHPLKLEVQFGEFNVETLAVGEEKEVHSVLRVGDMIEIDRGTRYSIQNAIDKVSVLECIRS
As to the kind of experiment: LacO/LacI tethering assay in cells. As to conditions: remark: other sources report otherwise.

The target of assay [2] is T2, His-CENP-C_(1264-1411 L1357E/M1407E) (Drosophila melanogaster) (UniProt Q9VHP9).
T2 sequence: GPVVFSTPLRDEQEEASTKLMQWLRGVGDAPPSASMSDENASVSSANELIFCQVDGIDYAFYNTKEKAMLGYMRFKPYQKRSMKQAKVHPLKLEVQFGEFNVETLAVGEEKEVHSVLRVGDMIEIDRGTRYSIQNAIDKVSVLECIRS
As to the kind of experiment: SEC-MALS. For orientation: Size exclusion chromatography separates by hydrodynamic size, large species first.

B1: CAL1-V5, Q9VEN2 1-979 (protein)
chain: MANAVVDEETLEAMVYERSKAWSSKMADFASLEDGMEIDVAEFDNLFHGEDEDPDLDDVAKEAVEDNVPDEAKLEMGHINATSVTELTLILCANEDNEAKAEIEEILNQTVPVVEEHKRKWREAGLDRILDTFDEKQIEHHVGRWMRRHNSVYLEASPPKYLPPHHNSISDESDESMHSIDTARYIQQSRRRNAHMTNKNMTTIKMYRKHSHKRDELRAKYAYGDEQEHRHHMQAVLLRRRERERQLAYLASTPMQCVYSSGHHMRRKNLRKRRINSWMFDSASSSEEDTSFGGCDCHSCRRHYALSRSVYQSCPYGRGQREYHHRQMASRTMHTMRRQHTFDMEMDLRPRLPENECSCCNSDRLCSNVIHIANSSTEEWVVENRSNHLTQETQEKTRKQKHQPMDARKVSHQPVCSKGHEQKPLSSKATSVSKLVLSKEKYMQMFDSESSDEDNALAKKGLLCCSDKKKGMTFPTPNAAGKITHPTSSAKKAIRKEARPNGLAQIQEEGPTATNSPIESTYLPVAHMKSVSIDGSSGTSATFESPAKKAPKRGIRETSPLNGNELQQLISTIPIADEKASSLMEKVDNCIGRESFDDRNKDFMHMENSSTKTAVEKSTKQKRVSGKKSEIPKSIITNNEILEKNSTETLSEKQVAAKAKKQSVRKTGATGKPSTSRLKKSEKTKTTSSVTSTSKLEQVREEESDVSSEVLAKPKPQCSTTASILKQGGDGASNSEDDLQIALAMSKATYKEEQQKRKKTKREPSNKQPQSPAEKSMTVFNNQSVACNSTALANDTACYRVLPKRRGVKRAAAVSTTEEKTATNSSSSPTSSLEEMGSPTGGDPDCTVVTSTTGCEPPASERQEIPATIKITKRGILLHSPSAPEGASFTLTEQGLGKIIGERWARKYLKYHIGSRSFDSRHSVYYQPTPQLAAALSAPQDAQNIGNISGSSASDDDIFEQINRYGTVYSILENNSGDK
For B1, the binding entry in assay [1] is recorded as “binds”.

B2: His-CENP-C_(1264-1411 L1357E/M1407E) (domain or fragment, UniProt Q9VHP9 1264-1411)
chain: GPVVFSTPLRDEQEEASTKLMQWLRGVGDAPPSASMSDENASVSSANELIFCQVDGIDYAFYNTKEKAMLGYMRFKPYQKRSMKQAKVHPLKLEVQFGEFNVETLAVGEEKEVHSVLRVGDMIEIDRGTRYSIQNAIDKVSVLECIRS
Take B2: the binding entry in assay [2] is recorded as “no binding”.
